Measured values taken from patent US20180193327A1, “PROPHYLACTIC LEUKOTRIENE INHIBITOR AND IMPLANT DISPLACEMENT THERAPY FOR PREVENTION AND TREATMENT OF CAPSULAR CONTRACTURE IN SILICONE BREAST AUGMENTATION” (priority 2017, published 2018).
At least one compound was matched to its structure with a doubt left.

Tested on: capsular contracture in patients undergoing primary silicone gel breast augmentation
Assay: Capsular contracture (Baker scale) at one year after primary silicone gel breast augmentation, retrospective review
Format: in vivo, patients (women)
Protocol: The study was performed with a retrospective review of 1122 consecutive women undergoing primary, silicone gel breast augmentation. Over time, the author added leukotriene inhibitor therapy to the postoperative treatment of patients. The first group of patients were treated without leukotriene therapy. Consecutive patients agreeing to the off-label use of leukotriene inhibitors were then studied. The second group of consecutive patients was offered Singulair therapy postoperatively while all other aspects of the surgical technique and care remained the same. Finally, the author offered Accolate therapy to the final group of patients undergoing breast augmentation.
Patients chose augmentation with either a periareolar or inframammary approach. Silicone breast augmentation procedures were performed using a standardized, dual plane technique. All patients were treated with preoperative intravenous antibiotics, either a one-gram dose of cephazolin or 600 mg of clindamycin, selected based on allergy profiles. Prior to insertion of implants, triple-antibioic irrigation (50,000 U bacitracin, 1 g Ancef, 80 mg gentamicin) with the addition of 50 ml of povidone-iodine in 500 ml of normal saline was utilized. All implants were placed with power-free glove changes, and inserted through a skin barrier/nipple shield using Tegaderm dressings. The implant displacement therapy protocol was initiated on post-operative day two.
Patients that were administered Singulair were treated according to the method described in FIGS. 1 and 2 of the present disclosure. First, patients were evaluated clinically to see if they were a candidate for breast augmentation with physical examination and medical history. The medical history review included discussion and review of liver health, current medications, and potential contraindications or drug interactions with leukotriene inhibitors. Patients were then provided an informed consent for the use of Singulair, 10 mg daily. The informed consent reviewed the potential benefits and risks of this medication which is taken as an off-label indication. Breast augmentation was performed with either smooth or textured silicone or saline implants. On the day following surgery, Singulair therapy is initiated, 10 mg QD. In the first week following surgery, the implant displacement therapy protocol was begun for patients with smooth surface silicone implants. The implant displacement therapy protocol may also be performed, if indicated, for patients with mildly textured breast implants, but not with moderately textured or highly textured devices. Monitoring for side effects from Singulair was conducted by educating patients as to the common side effects and discussing with patients noted side effects. Singulair can be discontinued if the side effects are significant. At thirty days postoperatively, the softness of the breast implants as well as the implant movement and position was evaluated to determine if capsular contracture was present. Two more months of Singulair was prescribed. Following three total months of therapy, the breasts were evaluated for the presence of capsular contracture. Patients without clinical capsular contracture, Baker I and II, were completed with therapy. […]
Patients that were administered Accolate were treated according to the method described in FIGS. 1 and 2 of the present disclosure. First, patients were evaluated clinically to see if they were a candidate for breast augmentation with physical examination and medical history. […]

[1] = one year following silicone gel breast augmentation, patients with contracture/patients followed

CC(C)(O)c1ccccc1CC[C@@H](SCC1(CC(=O)O)CC1)c1cccc(/C=C/c2ccc3ccc(Cl)cc3n2)c1 [Singulair, Montelukast]
Number of patients demonstrating capsular contracture, inframammary incision [1]: 1/48 | Number of patients demonstrating capsular contracture, periareolar incision [1]: 4/105 | Number of patients demonstrating capsular contracture, total (both incisions) [1]: 5/153 | Number of patients with grade III/IV capsular contracture at three months that improved to grade II with an additional three months of therapy (primary augmentation, six months of therapy in total): two | Capsular contracture rate compared with patients not treated with leukotriene inhibitors (three months of therapy after primary augmentation, result in words): lower
